The record followed here is the supplement of paper PMC8104966.

Each structure is given as a SMILES string. Values joined by “and” are separate entries in the source; they are usually repeats but may differ in a detail not shown here. Equal values may be shown once. This is one part of the list. Repeats in this data set agree poorly, so a single value says little.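 U2OS cells expressing ACE2 were combined with U2OS cells expressing full-length spike, and imaging quantified fusion as the fraction of nuclei displaying both cell types' fluorescent markers. Non-toxic compounds with a fusion z-score under -3, i.e., over three standard deviations below the plate's DMSO wells, are called inhibitory hits.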

This assay has as its system U2OS ACE2 x SARS-CoV-2 spike co-culture. The assay is described as follows: cell-cell fusion (fraction fused) z-score vs plate DMSO control; higher = more fusion. To be noted: 30 µM; 5 h; toxicity class: non-toxic, passed QC.
Take `Nc1nc(=O)c2c(CCc3ccc(C(=O)N[C@@H](CCC(=O)[O-])C(=O)[O-])cc3)c[nH]c2[nH]1.Nc1nc(=O)c2c(CCc3ccc(C(=O)N[C@@H](CCC(=O)[O-])C(=O)[O-])cc3)c[nH]c2[nH]1.O.O.O.O.O.[Na+].[Na+].[Na+].[Na+]` [Pemetrexed Disodium Hydrate]: the “cell-cell fusion (z-score)” value is inactive: 2.62. As for `CCCC[C@@]1(C2CCCC2)Cc2cc(OCC(=O)O)c(Cl)c(Cl)c2C1=O` [R(+)-Butylindazone], the “cell-cell fusion (z-score)” value was inactive: 2.56. Then `NC(=O)C1CCCc2c1[nH]c1ccc(Cl)cc21` (configuration not stated), with inactive: -0.255; and `Cn1cc(C2=C(c3ccc(Cl)cc3Cl)C(=O)NC2=O)c2ccccc21`, with inactive: 1.29 and inactive: 2.08. For `CN(C/C=C/C#CC(C)(C)C)Cc1cccc2ccccc12.Cl`, the “cell-cell fusion (z-score)” value was inactive: 4.68. Then `CNC(=O)c1nn(C)c2c1C(C)(C)Cc1cnc(Nc3ccc(N4CCN(C)CC4)cc3)nc1-2`, with active: -7.44.

For the compound `CCN(CC)CCCC(C)Nc1nc(C)cc(Nc2ccc3nc(C)cc(N)c3c2)n1.Cl.Cl.Cl` (configuration not stated), the “cell-cell fusion (z-score)” value is inactive: 0.0293. On to `O=C(/C=C/c1ccccc1)c1ccc(O[C@@H]2O[C@H](CO)[C@@H](O)[C@H](O)[C@H]2O)cc1O`, for which the “cell-cell fusion (z-score)” value is inactive: 1.98. As for `N#Cc1ccc(COC[C@H]2O[C@H](n3c(NCc4ccc(Cl)c(Cl)c4)nc4c(N)ncnc43)[C@@H](O)[C@H]2O)cc1`, the “cell-cell fusion (z-score)” value was inactive: 1.54. Consider `CCN(CC)CCCC(C)Nc1ccnc2cc(Cl)ccc12.O=P(O)(O)O.O=P(O)(O)O` (configuration not stated), for which the “cell-cell fusion (z-score)” value was inactive: 1.27.

Take `N[C@@H](CCC(=O)N[C@@H](CS)C(=O)NCC(=O)O)C(=O)O`: the “cell-cell fusion (z-score)” value was inactive: -0.461. In the case of `CC(=O)c1ccc[nH]1`, the “cell-cell fusion (z-score)” value was inactive: 2.46. The same measure for `CCN(CCCCOC(=O)c1ccc(OC)c(OC)c1)C(C)Cc1ccc(OC)cc1.Cl` (configuration not stated): inactive: 2.92. Turning to `Br.COc1ccc2c(c1)[C@]13CCCC[C@@H]1[C@H](C2)N(C)CC3.O` [Dextromethorphan HBr monohydrate], the “cell-cell fusion (z-score)” value is inactive: 2.25. With `O=C(O)/C=C\C(=O)O.S=C(NC1CCCCC1)N1CCC(c2c[nH]cn2)CC1` [Thioperamide maleate], the “cell-cell fusion (z-score)” value was inactive: 1.57. Regarding `CNCCCN1c2ccccc2CCc2ccccc21.Cl` [Desipramine hydrochloride], the “cell-cell fusion (z-score)” value is inactive: 2.9.

Regarding `Cl.Cl.Cl.Cl.Cl.Cl.Cl.Cl.c1cc(CN2CCCNCCNCCCNCC2)ccc1CN1CCCNCCNCCCNCC1` [Plerixafor 8HCl (AMD3100 8HCl)], the “cell-cell fusion (z-score)” value is inactive: 1.71. The same measure for `CC(C)c1ccccc1Cc1cc(C(=O)Nc2ccc(S(=O)(=O)c3ccccc3C(C)(C)C)cc2)c(O)c(O)c1O`: active: -5.21; for `CC(C)NCC(O)c1cc(O)cc(O)c1` (configuration not stated): inactive: 0.47. For `CCCCN(CC)c1nc(C)nc2c1c(C)cn2-c1c(C)cc(C)cc1C.Cl`, the “cell-cell fusion (z-score)” value was inactive: 4.47 and inactive: 5.67. Consider `Cc1onc(-c2ccccc2Cl)c1C(=O)N[C@@H]1C(=O)N2[C@@H]1SC(C)(C)[C@@H]2C(=O)[O-].[Na+]`, for which the “cell-cell fusion (z-score)” value is inactive: 0.736. Take `C[C@]12CCC3c4ccc(O)cc4CCC3C1CC[C@@H]2OC(=O)CCC1CCCC1` (some centres not stated): the “cell-cell fusion (z-score)” value was inactive: 0.662.

Consider `CC1CNc2c(cccc2S(=O)(=O)N[C@@H](CCCNC(=N)N)C(=O)N2CC[C@@H](C)C[C@@H]2C(=O)O)C1` (some centres not stated) [Argatroban], for which the “cell-cell fusion (z-score)” value was inactive: 2.56.

As to `CO[C@@]1(NC(=O)C(C(=O)[O-])c2ccc(O)cc2)C(=O)N2C(C(=O)[O-])=C(CSc3nnnn3C)CO[C@@H]21.[Na+].[Na+]` (some centres not stated), the “cell-cell fusion (z-score)” value is inactive: 0.33. Consider `Cl.c1ccc2c(c1)OCC(C1=NCCN1)O2` (configuration not stated), for which the “cell-cell fusion (z-score)” value was inactive: 2.72. In the case of `Cl.c1ccc2c(c1)OCC(C1=NCCN1)O2` (configuration not stated) [Idazoxan hydrochloride], the “cell-cell fusion (z-score)” value was inactive: 0.859. With `COc1cc([C@@H]2c3cc4c(cc3[C@@H](O[C@@H]3O[C@@H]5CO[C@@H](c6cccs6)O[C@H]5[C@H](O)[C@H]3O)[C@H]3COC(=O)[C@H]23)OCO4)cc(OC)c1O` [Teniposide], the “cell-cell fusion (z-score)” value is inactive: 2.33.

Take `CCc1nn(CCCN2CCN(c3cccc(Cl)c3)CC2)c(=O)n1CCOc1ccccc1.Cl` [Nefazodone hydrochloride]: the “cell-cell fusion (z-score)” value was inactive: 2.42. In the case of `COC(=O)N[C@H](C(=O)N1CCC[C@H]1C(=O)Nc1ccc([C@@H]2CC[C@@H](c3ccc(NC(=O)[C@@H]4CCCN4C(=O)[C@@H](NC(=O)OC)C(C)C)cc3)N2c2ccc(C(C)(C)C)cc2)cc1)C(C)C` [Ombitasvir], the “cell-cell fusion (z-score)” value was inactive: 2.84.

In the case of `Nc1n[nH]c2nnc(-c3c(-c4ccccc4)nn4ccccc34)cc12`, the “cell-cell fusion (z-score)” value is inactive: -1.35. For the compound `CCn1cc(C(=O)O)c(=O)c2ccc(C)nc21`, the “cell-cell fusion (z-score)” value is inactive: 3.18.

Take `CN(CCOc1ccc(CC2SC(=O)NC2=O)cc1)c1ccccn1` (configuration not stated) [Rosiglitazone]: the “cell-cell fusion (z-score)” value was inactive: 1.82. As to `Cl.O=C(OCCN1CCOCC1)C1(c2ccccc2)CCCCC1`, the “cell-cell fusion (z-score)” value was inactive: 2.98. Take `Cc1cc(C(C)Nc2ccccc2)c2nc(N3CCOCC3)cc(=O)n2c1` (configuration not stated): the “cell-cell fusion (z-score)” value was inactive: -1.34. With `N=C(N)NCc1cccc(I)c1.N=C(N)NCc1cccc(I)c1.O=S(=O)(O)O` [m-Iodobenzylguanidine hemisulfate], the “cell-cell fusion (z-score)” value is inactive: 2.32. The same measure for `CN(C)c1ccc(/C=C2\C(=O)Nc3ccccc32)cc1`: inactive: 5.3. For the compound `Nc1nc2c(ncn2CCC(CO)CO)c(=O)[nH]1`, the “cell-cell fusion (z-score)” value was inactive: 3.39. As to `C[C@@H](Oc1cc(-n2cnc3ccc(CN4CCN(C)CC4)cc32)sc1C(N)=O)c1ccccc1C(F)(F)F`, the “cell-cell fusion (z-score)” value was inactive: -0.872.

In the case of `C=CC1(C)CC(=O)C2(O)C(C)(O1)C(OC(C)=O)C(O)C1C(C)(C)CCC(O)C12C` (configuration not stated) [Forskolin], the “cell-cell fusion (z-score)” value was inactive: -1.54.

On to `O=C(O)CCCCCCCCCCCCC1C=CCC1` (configuration not stated), for which the “cell-cell fusion (z-score)” value was inactive: 2.77. The same measure for `C=C(CC)C(=O)c1ccc(OCC(=O)O)c(Cl)c1Cl`: inactive: 0.539; for `Cl.Cl.c1ccc(CCCN2CCN(CCOC(c3ccccc3)c3ccccc3)CC2)cc1`: inactive: -0.441.
